Test results from the supplement of paper PMC11732987, “Enantioselective OTUD7B fragment discovery through chemoproteomics screening and high-throughput optimisation” (Communications Chemistry, 2025).
The list shows a part of the results. The data scatter; read single values as rough.

The chains behind the UniProt entries cited, without tags or fusion partners. Where a name states a change or a piece, a line headed by the entry shows the natural chain unless it says otherwise. Residues count along the entry.
UniProt Q9UK61, 945-964: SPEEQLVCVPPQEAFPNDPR
UniProt Q86VP1, whole entry, looked up: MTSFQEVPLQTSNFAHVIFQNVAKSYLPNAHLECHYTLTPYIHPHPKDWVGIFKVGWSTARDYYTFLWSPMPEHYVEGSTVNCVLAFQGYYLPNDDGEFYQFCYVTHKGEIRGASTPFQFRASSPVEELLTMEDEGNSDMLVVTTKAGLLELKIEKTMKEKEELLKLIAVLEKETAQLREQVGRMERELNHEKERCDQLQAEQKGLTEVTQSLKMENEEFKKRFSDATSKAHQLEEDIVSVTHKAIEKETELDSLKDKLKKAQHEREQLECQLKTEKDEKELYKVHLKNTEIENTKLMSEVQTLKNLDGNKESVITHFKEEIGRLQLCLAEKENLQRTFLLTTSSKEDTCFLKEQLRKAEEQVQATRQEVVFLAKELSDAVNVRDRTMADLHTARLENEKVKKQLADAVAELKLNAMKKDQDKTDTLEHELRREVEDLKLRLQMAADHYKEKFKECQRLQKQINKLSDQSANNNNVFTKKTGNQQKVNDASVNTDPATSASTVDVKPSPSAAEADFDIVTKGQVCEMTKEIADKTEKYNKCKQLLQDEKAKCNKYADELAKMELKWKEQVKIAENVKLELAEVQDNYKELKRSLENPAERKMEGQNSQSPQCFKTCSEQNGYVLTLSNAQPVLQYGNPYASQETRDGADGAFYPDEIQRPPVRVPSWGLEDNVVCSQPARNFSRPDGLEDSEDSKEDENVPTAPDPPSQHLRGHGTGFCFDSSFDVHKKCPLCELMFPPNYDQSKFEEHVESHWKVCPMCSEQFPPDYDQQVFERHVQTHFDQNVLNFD
UniProt P37837: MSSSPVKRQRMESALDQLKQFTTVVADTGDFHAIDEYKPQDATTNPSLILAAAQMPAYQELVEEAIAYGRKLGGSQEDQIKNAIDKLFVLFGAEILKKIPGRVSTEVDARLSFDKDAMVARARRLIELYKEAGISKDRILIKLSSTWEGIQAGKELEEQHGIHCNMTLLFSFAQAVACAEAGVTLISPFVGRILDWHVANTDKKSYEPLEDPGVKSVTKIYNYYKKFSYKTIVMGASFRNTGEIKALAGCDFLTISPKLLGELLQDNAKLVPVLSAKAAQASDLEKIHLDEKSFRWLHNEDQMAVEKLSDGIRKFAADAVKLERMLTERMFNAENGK
UniProt Q9H7E2: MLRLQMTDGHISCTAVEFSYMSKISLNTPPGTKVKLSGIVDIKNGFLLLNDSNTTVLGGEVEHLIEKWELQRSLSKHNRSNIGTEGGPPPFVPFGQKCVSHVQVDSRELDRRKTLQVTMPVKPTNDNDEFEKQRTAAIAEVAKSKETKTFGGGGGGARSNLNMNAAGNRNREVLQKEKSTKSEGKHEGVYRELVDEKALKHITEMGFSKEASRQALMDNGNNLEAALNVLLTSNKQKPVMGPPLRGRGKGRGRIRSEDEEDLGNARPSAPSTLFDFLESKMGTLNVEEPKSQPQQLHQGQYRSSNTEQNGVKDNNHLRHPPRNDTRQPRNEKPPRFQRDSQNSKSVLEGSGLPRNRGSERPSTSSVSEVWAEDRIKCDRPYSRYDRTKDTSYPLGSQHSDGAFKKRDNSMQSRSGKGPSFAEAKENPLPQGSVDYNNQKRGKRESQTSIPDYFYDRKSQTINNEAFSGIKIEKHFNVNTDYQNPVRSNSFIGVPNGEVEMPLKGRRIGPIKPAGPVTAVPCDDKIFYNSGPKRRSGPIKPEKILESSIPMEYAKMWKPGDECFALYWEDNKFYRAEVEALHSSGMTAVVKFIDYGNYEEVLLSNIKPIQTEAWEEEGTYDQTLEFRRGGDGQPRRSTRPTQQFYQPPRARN
UniProt P08247: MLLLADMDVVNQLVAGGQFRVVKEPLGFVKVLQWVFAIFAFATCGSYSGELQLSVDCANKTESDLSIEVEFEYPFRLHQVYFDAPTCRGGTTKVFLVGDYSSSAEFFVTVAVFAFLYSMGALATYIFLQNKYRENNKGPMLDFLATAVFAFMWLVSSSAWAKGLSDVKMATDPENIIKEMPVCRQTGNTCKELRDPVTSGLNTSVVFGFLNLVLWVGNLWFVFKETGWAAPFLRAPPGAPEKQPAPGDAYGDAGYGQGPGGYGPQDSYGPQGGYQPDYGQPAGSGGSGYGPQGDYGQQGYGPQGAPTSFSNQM
UniProt Q9UGI8: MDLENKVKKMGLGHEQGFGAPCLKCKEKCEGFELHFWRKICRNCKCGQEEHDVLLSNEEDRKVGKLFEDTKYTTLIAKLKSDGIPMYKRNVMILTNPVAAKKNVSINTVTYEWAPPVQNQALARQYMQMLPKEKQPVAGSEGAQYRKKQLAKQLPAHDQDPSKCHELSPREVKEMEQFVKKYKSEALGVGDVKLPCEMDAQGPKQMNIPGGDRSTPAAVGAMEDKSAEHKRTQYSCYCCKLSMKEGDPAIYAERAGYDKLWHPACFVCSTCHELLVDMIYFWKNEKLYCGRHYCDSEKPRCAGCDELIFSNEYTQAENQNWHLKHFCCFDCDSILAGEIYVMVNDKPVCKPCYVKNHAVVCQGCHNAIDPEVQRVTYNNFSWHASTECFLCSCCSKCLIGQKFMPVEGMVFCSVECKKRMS
UniProt Q8WY91: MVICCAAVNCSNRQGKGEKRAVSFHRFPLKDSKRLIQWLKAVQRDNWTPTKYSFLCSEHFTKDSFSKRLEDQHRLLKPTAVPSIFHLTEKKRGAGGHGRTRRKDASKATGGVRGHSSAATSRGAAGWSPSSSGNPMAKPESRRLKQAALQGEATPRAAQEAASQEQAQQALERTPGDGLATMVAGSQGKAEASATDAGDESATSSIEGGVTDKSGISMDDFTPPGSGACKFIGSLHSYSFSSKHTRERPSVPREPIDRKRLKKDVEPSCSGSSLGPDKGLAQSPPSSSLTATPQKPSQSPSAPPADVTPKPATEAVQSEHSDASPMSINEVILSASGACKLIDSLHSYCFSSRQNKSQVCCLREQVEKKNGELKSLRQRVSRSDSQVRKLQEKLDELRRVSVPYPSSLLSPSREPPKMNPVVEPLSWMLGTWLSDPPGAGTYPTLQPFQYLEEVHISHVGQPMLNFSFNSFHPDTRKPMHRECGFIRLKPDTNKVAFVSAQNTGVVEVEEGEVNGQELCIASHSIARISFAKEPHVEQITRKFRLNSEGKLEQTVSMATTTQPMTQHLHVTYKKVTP
UniProt Q9C0B7: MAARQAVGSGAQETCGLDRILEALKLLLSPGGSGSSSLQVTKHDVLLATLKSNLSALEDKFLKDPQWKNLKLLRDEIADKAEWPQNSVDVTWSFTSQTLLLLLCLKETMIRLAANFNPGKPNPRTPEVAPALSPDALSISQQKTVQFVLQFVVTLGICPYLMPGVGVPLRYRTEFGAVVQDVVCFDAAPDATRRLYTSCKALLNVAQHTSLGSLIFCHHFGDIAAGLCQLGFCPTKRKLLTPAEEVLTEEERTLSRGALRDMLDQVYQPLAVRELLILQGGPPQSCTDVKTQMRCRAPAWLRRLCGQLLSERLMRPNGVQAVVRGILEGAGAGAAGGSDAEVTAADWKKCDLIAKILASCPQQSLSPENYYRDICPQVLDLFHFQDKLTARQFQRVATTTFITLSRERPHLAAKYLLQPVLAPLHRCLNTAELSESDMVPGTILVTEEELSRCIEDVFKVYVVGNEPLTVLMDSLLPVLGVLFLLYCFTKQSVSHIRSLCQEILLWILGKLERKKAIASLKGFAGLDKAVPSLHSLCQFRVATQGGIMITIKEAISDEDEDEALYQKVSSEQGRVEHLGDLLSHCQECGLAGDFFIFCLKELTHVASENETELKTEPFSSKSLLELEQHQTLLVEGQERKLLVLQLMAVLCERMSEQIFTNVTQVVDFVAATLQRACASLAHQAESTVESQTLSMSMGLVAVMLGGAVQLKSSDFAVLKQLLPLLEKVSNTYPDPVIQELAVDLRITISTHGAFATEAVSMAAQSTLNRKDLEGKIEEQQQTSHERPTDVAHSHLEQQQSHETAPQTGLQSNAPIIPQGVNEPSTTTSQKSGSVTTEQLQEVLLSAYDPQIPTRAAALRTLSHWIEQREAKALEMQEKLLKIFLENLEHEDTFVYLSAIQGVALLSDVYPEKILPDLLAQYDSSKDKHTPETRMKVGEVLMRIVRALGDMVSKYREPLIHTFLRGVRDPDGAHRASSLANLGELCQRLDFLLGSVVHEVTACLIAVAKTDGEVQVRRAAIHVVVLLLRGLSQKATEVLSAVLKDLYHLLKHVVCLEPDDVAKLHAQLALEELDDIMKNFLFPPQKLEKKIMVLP
UniProt O75528, 243-263: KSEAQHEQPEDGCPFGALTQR
UniProt Q03167, 819-851: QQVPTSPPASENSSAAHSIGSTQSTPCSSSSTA
UniProt Q9C0D5: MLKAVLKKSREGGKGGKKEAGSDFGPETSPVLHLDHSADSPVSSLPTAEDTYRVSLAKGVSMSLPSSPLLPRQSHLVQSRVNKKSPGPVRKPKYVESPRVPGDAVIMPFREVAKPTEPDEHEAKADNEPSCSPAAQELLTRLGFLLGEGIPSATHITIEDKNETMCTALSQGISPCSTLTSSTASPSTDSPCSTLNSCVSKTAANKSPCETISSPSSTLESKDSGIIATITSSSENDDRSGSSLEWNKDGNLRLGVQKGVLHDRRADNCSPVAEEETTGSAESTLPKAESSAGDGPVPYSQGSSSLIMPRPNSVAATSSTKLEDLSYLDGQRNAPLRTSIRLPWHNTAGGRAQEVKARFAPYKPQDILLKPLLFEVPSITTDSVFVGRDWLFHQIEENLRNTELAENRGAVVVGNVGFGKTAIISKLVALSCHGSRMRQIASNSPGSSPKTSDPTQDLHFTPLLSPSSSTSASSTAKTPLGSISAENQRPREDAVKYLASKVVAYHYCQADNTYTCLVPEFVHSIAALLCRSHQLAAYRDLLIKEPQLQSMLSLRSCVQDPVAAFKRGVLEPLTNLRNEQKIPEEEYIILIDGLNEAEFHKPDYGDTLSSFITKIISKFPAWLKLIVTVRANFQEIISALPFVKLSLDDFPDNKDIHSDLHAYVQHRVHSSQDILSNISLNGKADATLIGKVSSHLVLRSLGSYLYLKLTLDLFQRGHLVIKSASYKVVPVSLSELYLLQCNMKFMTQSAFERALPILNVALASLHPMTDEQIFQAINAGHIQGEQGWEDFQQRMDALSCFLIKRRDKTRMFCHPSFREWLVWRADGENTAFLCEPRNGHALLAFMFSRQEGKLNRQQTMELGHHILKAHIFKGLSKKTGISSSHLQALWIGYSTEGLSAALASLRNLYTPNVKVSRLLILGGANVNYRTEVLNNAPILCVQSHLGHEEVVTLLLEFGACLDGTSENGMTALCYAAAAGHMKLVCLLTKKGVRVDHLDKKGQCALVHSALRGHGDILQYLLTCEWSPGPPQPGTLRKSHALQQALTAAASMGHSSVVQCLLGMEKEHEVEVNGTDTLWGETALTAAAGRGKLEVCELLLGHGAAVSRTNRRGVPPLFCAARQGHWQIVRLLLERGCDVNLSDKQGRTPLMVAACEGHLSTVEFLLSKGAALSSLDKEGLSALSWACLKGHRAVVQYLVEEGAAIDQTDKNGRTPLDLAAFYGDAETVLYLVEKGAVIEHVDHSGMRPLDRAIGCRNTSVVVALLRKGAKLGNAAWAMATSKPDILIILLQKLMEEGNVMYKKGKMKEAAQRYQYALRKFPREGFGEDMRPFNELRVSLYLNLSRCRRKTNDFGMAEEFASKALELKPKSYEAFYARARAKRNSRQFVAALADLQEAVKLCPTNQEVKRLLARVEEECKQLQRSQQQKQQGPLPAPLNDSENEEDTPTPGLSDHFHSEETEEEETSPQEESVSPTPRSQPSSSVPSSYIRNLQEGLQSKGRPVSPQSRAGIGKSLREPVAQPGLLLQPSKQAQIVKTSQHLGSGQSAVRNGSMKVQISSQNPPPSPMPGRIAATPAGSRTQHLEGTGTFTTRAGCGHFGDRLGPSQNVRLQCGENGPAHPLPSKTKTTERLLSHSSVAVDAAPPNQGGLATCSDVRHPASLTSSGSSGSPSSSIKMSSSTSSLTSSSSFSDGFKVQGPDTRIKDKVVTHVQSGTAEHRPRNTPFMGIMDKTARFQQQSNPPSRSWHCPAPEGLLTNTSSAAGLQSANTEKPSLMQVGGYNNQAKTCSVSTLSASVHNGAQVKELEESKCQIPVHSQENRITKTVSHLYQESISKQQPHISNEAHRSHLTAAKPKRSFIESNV
UniProt Q5JUR7: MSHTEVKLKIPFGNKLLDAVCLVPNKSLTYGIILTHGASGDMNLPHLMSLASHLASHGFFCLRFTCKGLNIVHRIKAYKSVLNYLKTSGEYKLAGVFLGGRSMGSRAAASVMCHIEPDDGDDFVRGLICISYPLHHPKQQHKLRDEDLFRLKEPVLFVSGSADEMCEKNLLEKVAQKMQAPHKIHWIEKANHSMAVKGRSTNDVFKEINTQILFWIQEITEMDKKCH
UniProt Q53T94, 181-201: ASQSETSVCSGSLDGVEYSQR
UniProt P37802, 58-78: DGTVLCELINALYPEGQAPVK
UniProt Q96BW9, 271-290: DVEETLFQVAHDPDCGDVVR

Tests used:
[1] = compound: ClCC(=O)N[C@@H]1CCCc2ccccc12; assay: log2 mean competition ratio of IA-DTB cysteine labelling (DMSO/compound) (log2 ratio); higher = stronger cysteine engagement by compound; conditions: treatment time: 4 h, cell line lysate: HEK293T
Experimental: (§1)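 IA-DTB competitive cysteine chemoproteomics in HEK293T RIPA lysate. Lysates were treated with compound 29 or 30 at 50 or 200 µM for 4 h, then IA-DTB (500 µM, 1 h), trypsin-digested, NeutrAvidin-enriched and analysed by diaPASEF. Competition ratio = intensity DMSO / intensity compound (n=4 treated, n=64 DMSO); binding: mean log2 CR ≥ 1 and p ≤ 0.05 plus QC filters. Target is the cysteine site.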

[2] = compound: ClCC(=O)N[C@H]1CCCc2ccccc12; assay: as above; conditions: treatment time: 4 h, cell line lysate: HEK293T
Experimental: as §1

Target	log2 mean competition ratio ([1]; 50 µM)	log2 mean competition ratio ([1]; 200 µM)	log2 mean competition ratio ([2]; 50 µM)	log2 mean competition ratio ([2]; 200 µM)
TACC1 C514 (UniProt O75410)	-0.049	0.0949	-0.068	0.109
TASOR C690 (UniProt Q9UK61)	0.0423	0.0948	0.0616	0.193
TEDC1 C461 (UniProt Q86SX3)	0.169	0.272	-0.188	0.156
TAX1BP1 C350 (UniProt Q86VP1)	-0.223	0.159	-0.17	0.144
TASOR C952 (UniProt Q9UK61)	-0.016	-0.0742	0.0473	-0.234
THOC2 C931	0.139	-0.0844	0.465	0.0775
TAF3 C431 (UniProt Q5VWG9)	-0.104	0.0261	-0.28	0.175
TDP1 C135 (UniProt Q9NUW8)	0.0815	-0.138	0.346	-0.224
TALDO1 C250 (UniProt P37837)	0.486	0.355	-0.0935	0.314
TDRD3 C98 (UniProt Q9H7E2)	0.196	0.272	0.589	0.167
SYP C87 (UniProt P08247)	0.076	0.0994	0.218	0.0496
TES C196 (UniProt Q9UGI8)	-0.118	0.253	-0.58	0.111
TASOR C1245 (UniProt Q9UK61)	-0.175	0.082	-0.191	-0.147
THUMPD1 C169 (UniProt Q9NXG2)	0.0318	-0.176	0.426	-0.071
TES C164 (UniProt Q9UGI8)	-0.194	-0.456	0.0695	-0.498
TADA2B C123 (UniProt Q86TJ2)	0.223	-0.0316	-0.0756	-0.0759
THAP4 C229 (UniProt Q8WY91)	-0.0451	0.287	0.6	0.416
TAX1BP1 C271 (UniProt Q86VP1)	-0.363	-0.539	0.235	-0.21
TDP2 C6 (UniProt O95551)	-0.151	-0.0219	-0.0675	0.174
TGS1 C357 (UniProt Q96RS0)	-0.157	0.112	-0.304	0.0574
TEPSIN C493	-0.114	-0.0811	0.0576	-0.0371
TCAF1 C126 (UniProt Q9Y4C2)	-0.17	0.143	-0.329	0.0958
TANGO6 C985 (UniProt Q9C0B7)	-0.0996	-0.256	-0.0986	-0.206
TCP1 C76 (UniProt P17987)	0.0605	-0.312	-0.286	-0.404

Target	log2 mean competition ratio ([1]; 50 µM)	log2 mean competition ratio ([1]; 200 µM)	log2 mean competition ratio ([2]; 50 µM)	log2 mean competition ratio ([2]; 200 µM)
TADA3 C255 (UniProt O75528)	0.204	1.05	0.0649	0.87
TES C294 (UniProt Q9UGI8)	0.235	-0.228	0.251	-0.167
TGFBR3 C845 (UniProt Q03167)			0.283	-0.595
THOC2 C1152			-0.0965	0.0931
TANC1 C131 (UniProt Q9C0D5)	0.0706	0.204	0.14	0.127
TEX30 C21 (UniProt Q5JUR7)			-0.271	-0.128
TBC1D1 C336 (UniProt Q86TI0)			-0.224	0.213
THADA C646 (UniProt Q6YHU6)	-0.141	-0.0838	0.0376	0.0244
TACC2 C2859 (UniProt O95359)				0.141
TICRR C1626 (UniProt Q7Z2Z1)	-0.00816	-0.0507	0.253	0.229
THADA C588 (UniProt Q6YHU6)	-0.0258	-0.0407	0.793	0.0829
TBCE C371 (UniProt Q15813)			-0.257	-0.261
TAF1B C189 (UniProt Q53T94)			0.203	-0.141
THOC1 C156 (UniProt Q96FV9)	0.139	0.747	0.417	0.299
TBC1D15 C197 (UniProt Q8TC07)			0.362	0.441
TBX2 C356			0.335	0.0197
TASOR2 C739 (UniProt Q5VWN6)			-0.0935	-0.382
TAGLN2 C63 (UniProt P37802)			0.256	-0.444
TAMM41 C285 (UniProt Q96BW9)	-0.329	0.173	-0.386	0.0558
TAB3 C590 (UniProt Q8N5C8)			-0.102	-0.289
TAPR1 C259	-0.00236	-0.0718	-0.206	0.0141
TACC1 C78 (UniProt O75410)			0.0663	-0.0999
TASOR C195 (UniProt Q9UK61)			0.224	-0.118
TGFBR1 C86 (UniProt P36897)	-0.0886	0.33	-0.255	-0.0155

Quoted at random: two entries already listed, in no set order.
Target	log2 mean competition ratio ([1]; 50 µM)	log2 mean competition ratio ([1]; 200 µM)	log2 mean competition ratio ([2]; 50 µM)	log2 mean competition ratio ([2]; 200 µM)
TBX2 C356			0.335	0.0197
THOC1 C156 (UniProt Q96FV9)	0.139	0.747	0.417	0.299
